Measured data: PubChem BioAssay AID1224830 (NIAID, 2016)

Test: 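Host factors that control LPS-induced TNF expression in human macrophages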 (primary screen)
Cell system: human THP-1 monocytic leukaemia cells, TNF dual-luciferase reporter clone, PMA-differentiated to macrophage-like cells
Reagent: siRNA pool against human genes, 50 nM
Timing: LPS for 4 h, given about 3 days after siRNA transfection
Conditions: bacterial LPS (TLR4 ligand), 10 ng/ml
Measurement: 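TNF firefly reporter luminescence divided by renilla, normalised to the plate median, then turned into a robust z-score for each replicate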
Direction: TNF reporter robust z-score: higher = stronger TNF reporter response to LPS
Hit rule: 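Each well counts as active if its z-score is over 2.8 or under -1.5; controls are left without a call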
Shown is one part, drawn at random, of about 18,000 reagents tested. In the full data, about 2,900 (16%) were called active. 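Calls are made per well; low scores hint the gene aids the LPS response, high scores that it dampens it.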 Repeated entries: four replicate wells of each siRNA pool. Reagent sequences are not shown.

no.	gene knocked down	TNF reporter robust z-score	Call
1	NDOR1 (NADPH dependent diflavin oxidoreductase 1)	-1.01	inactive
2	NDOR1 (NADPH dependent diflavin oxidoreductase 1)	-0.62	inactive
3	NDOR1 (NADPH dependent diflavin oxidoreductase 1)	-0.69	inactive
4	NDOR1 (NADPH dependent diflavin oxidoreductase 1)	-0.53	inactive
5	DUX5 (double homeobox 5)	-0.09	inactive
6	DUX5 (double homeobox 5)	-0.29	inactive
7	DUX5 (double homeobox 5)	-0.18	inactive
8	DUX5 (double homeobox 5)	1.22	inactive
9	TATDN1 (TatD DNase domain containing 1)	-0.56	inactive
10	TATDN1 (TatD DNase domain containing 1)	0.21	inactive
11	TATDN1 (TatD DNase domain containing 1)	-0.3	inactive
12	TATDN1 (TatD DNase domain containing 1)	1.08	inactive
13	RBBP8NL (RBBP8 N-terminal like)	-0.96	inactive
14	RBBP8NL (RBBP8 N-terminal like)	0.1	inactive
15	RBBP8NL (RBBP8 N-terminal like)	-0.12	inactive
16	RBBP8NL (RBBP8 N-terminal like)	-0.95	inactive
17	IYD (iodotyrosine deiodinase)	0.66	inactive
18	IYD (iodotyrosine deiodinase)	1.22	inactive
19	IYD (iodotyrosine deiodinase)	1.26	inactive
20	IYD (iodotyrosine deiodinase)	-0.35	inactive
21	ZNF300 (zinc finger protein 300)	0.53	inactive
22	ZNF300 (zinc finger protein 300)	-0.55	inactive
23	ZNF300 (zinc finger protein 300)	-0.31	inactive
24	ZNF300 (zinc finger protein 300)	0.09	inactive
25	EDARADD (EDAR associated via death domain)	1.61	inactive
26	EDARADD (EDAR associated via death domain)	1.6	inactive
27	EDARADD (EDAR associated via death domain)	2.09	inactive
28	EDARADD (EDAR associated via death domain)	0.76	inactive
29	CASS4 (Cas scaffold protein family member 4)	-0.25	inactive
30	CASS4 (Cas scaffold protein family member 4)	0.43	inactive
31	CASS4 (Cas scaffold protein family member 4)	-0.02	inactive
32	CASS4 (Cas scaffold protein family member 4)	1.06	inactive
33	SP7 (Sp7 transcription factor)	2.91	active
34	SP7 (Sp7 transcription factor)	2.74	inactive
35	SP7 (Sp7 transcription factor)	1.29	inactive
36	SP7 (Sp7 transcription factor)	1.8	inactive
37	NSF (N-ethylmaleimide sensitive factor, vesicle fusing ATPase)	-0.74	inactive
38	NSF (N-ethylmaleimide sensitive factor, vesicle fusing ATPase)	-0.03	inactive
39	NSF (N-ethylmaleimide sensitive factor, vesicle fusing ATPase)	-0.23	inactive
40	NSF (N-ethylmaleimide sensitive factor, vesicle fusing ATPase)	0.13	inactive
41	CLCA2 (chloride channel accessory 2)	-0.59	inactive
42	CLCA2 (chloride channel accessory 2)	0.2	inactive
43	CLCA2 (chloride channel accessory 2)	0.17	inactive
44	CLCA2 (chloride channel accessory 2)	-0.02	inactive
45	SLC25A1	-0.86	inactive
46	SLC25A1	0.03	inactive
47	SLC25A1	-0.65	inactive
48	SLC25A1	0.52	inactive
49	BMP5 (bone morphogenetic protein 5)	0.44	inactive
50	BMP5 (bone morphogenetic protein 5)	0.41	inactive
51	BMP5 (bone morphogenetic protein 5)	0.02	inactive
52	BMP5 (bone morphogenetic protein 5)	0.19	inactive
53	PEG3 (paternally expressed 3)	0.52	inactive
54	PEG3 (paternally expressed 3)	1.58	inactive
55	PEG3 (paternally expressed 3)	1.55	inactive
56	PEG3 (paternally expressed 3)	0.37	inactive
57	ARPIN (actin related protein 2/3 complex inhibitor)	-0.67	inactive
58	ARPIN (actin related protein 2/3 complex inhibitor)	-1.21	inactive
59	ARPIN (actin related protein 2/3 complex inhibitor)	-0.55	inactive
60	ARPIN (actin related protein 2/3 complex inhibitor)	-0.15	inactive
61	SERTAD2 (SERTA domain containing 2)	-0.28	inactive
62	SERTAD2 (SERTA domain containing 2)	-0.14	inactive
63	SERTAD2 (SERTA domain containing 2)	-0.02	inactive
64	SERTAD2 (SERTA domain containing 2)	0.28	inactive
65	TCL1A (TCL1 family AKT coactivator A)	0.84	inactive
66	TCL1A (TCL1 family AKT coactivator A)	3.2	active
67	TCL1A (TCL1 family AKT coactivator A)	1.18	inactive
68	TCL1A (TCL1 family AKT coactivator A)	2.52	inactive
69	KIF13B (kinesin family member 13B)	1.15	inactive
70	KIF13B (kinesin family member 13B)	0.91	inactive
71	KIF13B (kinesin family member 13B)	0.82	inactive
72	KIF13B (kinesin family member 13B)	1.63	inactive
73	OR2T11 (olfactory receptor family 2 subfamily T member 11)	-0.98	inactive
74	OR2T11 (olfactory receptor family 2 subfamily T member 11)	-0.87	inactive
75	OR2T11 (olfactory receptor family 2 subfamily T member 11)	0.26	inactive
76	OR2T11 (olfactory receptor family 2 subfamily T member 11)	-0.33	inactive
77	BRCA1 (BRCA1 DNA repair associated)	1.63	inactive
78	BRCA1 (BRCA1 DNA repair associated)	1.58	inactive
79	BRCA1 (BRCA1 DNA repair associated)	-0.36	inactive
80	BRCA1 (BRCA1 DNA repair associated)	0.85	inactive
81	PCDHGA11 (protocadherin gamma subfamily A, 11)	0.19	inactive
82	PCDHGA11 (protocadherin gamma subfamily A, 11)	0.96	inactive
83	PCDHGA11 (protocadherin gamma subfamily A, 11)	-0.38	inactive
84	PCDHGA11 (protocadherin gamma subfamily A, 11)	1.48	inactive
85	PIEZO1	-1.11	inactive
86	PIEZO1	-0.47	inactive
87	PIEZO1	-0.5	inactive
88	PIEZO1	-0.66	inactive
89	NCAPD3 (non-SMC condensin II complex subunit D3)	2.68	inactive
90	NCAPD3 (non-SMC condensin II complex subunit D3)	1.67	inactive
91	NCAPD3 (non-SMC condensin II complex subunit D3)	1.33	inactive
92	NCAPD3 (non-SMC condensin II complex subunit D3)	2.21	inactive
93	ENPP4 (ectonucleotide pyrophosphatase/phosphodiesterase 4)	-0.07	inactive
94	ENPP4 (ectonucleotide pyrophosphatase/phosphodiesterase 4)	-0.18	inactive
95	ENPP4 (ectonucleotide pyrophosphatase/phosphodiesterase 4)	0.15	inactive
96	ENPP4 (ectonucleotide pyrophosphatase/phosphodiesterase 4)	-1.04	inactive
97	NCAPH2 (non-SMC condensin II complex subunit H2)		inactive
98	GPX8 (glutathione peroxidase 8 (putative))	-0.7	inactive
99	GPX8 (glutathione peroxidase 8 (putative))	-0.45	inactive
100	GPX8 (glutathione peroxidase 8 (putative))	-0.55	inactive
101	GPX8 (glutathione peroxidase 8 (putative))	-0.79	inactive
102	GPR101 (G protein-coupled receptor 101)	-1.01	inactive
103	GPR101 (G protein-coupled receptor 101)	-0.55	inactive
104	GPR101 (G protein-coupled receptor 101)	-0.7	inactive
105	GPR101 (G protein-coupled receptor 101)	0	inactive
106	ANAPC16 (anaphase promoting complex subunit 16)	2.86	active
107	ANAPC16 (anaphase promoting complex subunit 16)	2.73	inactive
108	ANAPC16 (anaphase promoting complex subunit 16)	-0.42	inactive
109	ANAPC16 (anaphase promoting complex subunit 16)	1.68	inactive
110	DDIT4 (DNA damage inducible transcript 4)	0.9	inactive
111	DDIT4 (DNA damage inducible transcript 4)	0.12	inactive
112	DDIT4 (DNA damage inducible transcript 4)	1.08	inactive
113	DDIT4 (DNA damage inducible transcript 4)	0.76	inactive

A run of entries taken from the entries so far, as a working copy:
no.	gene knocked down	TNF reporter robust z-score	Call
15	RBBP8NL (RBBP8 N-terminal like)	-0.12	inactive
16	RBBP8NL (RBBP8 N-terminal like)	-0.95	inactive
17	IYD (iodotyrosine deiodinase)	0.66	inactive
18	IYD (iodotyrosine deiodinase)	1.22	inactive
19	IYD (iodotyrosine deiodinase)	1.26	inactive
20	IYD (iodotyrosine deiodinase)	-0.35	inactive
21	ZNF300 (zinc finger protein 300)	0.53	inactive
22	ZNF300 (zinc finger protein 300)	-0.55	inactive
23	ZNF300 (zinc finger protein 300)	-0.31	inactive
24	ZNF300 (zinc finger protein 300)	0.09	inactive
25	EDARADD (EDAR associated via death domain)	1.61	inactive
26	EDARADD (EDAR associated via death domain)	1.6	inactive
27	EDARADD (EDAR associated via death domain)	2.09	inactive
28	EDARADD (EDAR associated via death domain)	0.76	inactive
